The text below walks through data of the supplement of paper PMC10689618.

Holding throughout (details): 24 h
The test system of experiment [1] is Human fetal astrocytes. The experiment is described as follows: loss of total cells relative to no-compound high-control median (toxicity); higher = more toxic (fewer cells).
The subject of experiment [2] is Human fetal astrocytes. The description is as above. This is another data set of the same source.
Experiment [3] has as its system Human fetal astrocytes. In words: synaptosome phagocytosis (pHrodo/calcein intensity ratio) relative to plate median of data wells; higher = more phagocytosis.
Experiment [4] has as its system Human fetal astrocytes. The description is as above. This is another data set of the same source.

This is one part of the list. Repeats are few or missing, and single values can be far off.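 Primary human fetal astrocytes engulfed labelled rat cortical synaptosomes, measured as a red/green ratio corrected for calcein live-cell signal and scaled to the plate median. Toxicity meant calcein falling over 30%; decreased phagocytosis meant below 70% of median above 5 µM.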

As for `CNC[C@H](O)c1ccc(O)c(O)c1` [(-)-Epinephrine bitartrate], the “loss of total cells” value in the experiment on Human fetal astrocytes [1] (1.39 µM) is 2.1%; with Human fetal astrocytes [1] (2.78 µM), -5.1%; in the experiment with Human fetal astrocytes [1] (5.56 µM), 9.1%; in the experiment on Human fetal astrocytes [1] (11.11 µM) it was -11.2%; with Human fetal astrocytes [1] (22.22 µM) it was 8.8%; with Human fetal astrocytes [2] (1.39 µM), 18.1%. The “loss of total cells” value in the experiment on Human fetal astrocytes [2] (2.78 µM) is -14.6%; with Human fetal astrocytes [2] (5.56 µM), 13.9%; in the experiment on Human fetal astrocytes [2] (11.11 µM), -1.4%; in the experiment with Human fetal astrocytes [2] (22.22 µM), 30.1%. Further, the synaptosome phagocytosis in the experiment on Human fetal astrocytes [3] (1.39 µM) was 101%; in the experiment with Human fetal astrocytes [3] (2.78 µM), 102%; with Human fetal astrocytes [3] (5.56 µM), 108%; in the experiment on Human fetal astrocytes [3] (11.11 µM) it was 98.8%; with Human fetal astrocytes [3] (22.22 µM), 90.2%; in the experiment on Human fetal astrocytes [4] (1.39 µM), 114%. For the same molecule, the synaptosome phagocytosis is 102% with Human fetal astrocytes [4] (2.78 µM), 112% with Human fetal astrocytes [4] (5.56 µM), 73.4% with Human fetal astrocytes [4] (11.11 µM) and 124% in the experiment with Human fetal astrocytes [4] (22.22 µM).

As for `COc1ccc2c3c1O[C@H]1C[C@@H](O)C=C[C@@]31CCN(C)C2`, the “loss of total cells” value in the experiment on Human fetal astrocytes [2] (1.39 µM) is -22.4%; in the experiment on Human fetal astrocytes [2] (2.78 µM) it was -16.8%; with Human fetal astrocytes [2] (5.56 µM) it was 2.1%; with Human fetal astrocytes [2] (11.11 µM), -23.4%; in the experiment with Human fetal astrocytes [2] (22.22 µM), 13.6%. The synaptosome phagocytosis in the experiment on Human fetal astrocytes [3] (1.39 µM) is 112%; with Human fetal astrocytes [3] (2.78 µM), 108%; in the experiment on Human fetal astrocytes [3] (5.56 µM) it was 121%; with Human fetal astrocytes [3] (11.11 µM), 90.5%; in the experiment with Human fetal astrocytes [3] (22.22 µM), 140%.

Turning to `CC(C)CCC[C@@H](C)[C@H]1CC[C@H]2[C@@H]3CC[C@H]4CC(=O)CC[C@]4(C)[C@H]3CC[C@]12C`, the “loss of total cells” value is 14.8% with Human fetal astrocytes [2] (1.39 µM); 11.9% in the experiment on Human fetal astrocytes [2] (2.78 µM); 15.9% with Human fetal astrocytes [2] (5.56 µM); -2.1% in the experiment on Human fetal astrocytes [2] (11.11 µM); -12.1% with Human fetal astrocytes [2] (22.22 µM). For the same molecule, the synaptosome phagocytosis is 70.8% in the experiment with Human fetal astrocytes [3] (1.39 µM); 67.9% with Human fetal astrocytes [3] (2.78 µM); 85% with Human fetal astrocytes [3] (5.56 µM); 109% in the experiment on Human fetal astrocytes [3] (11.11 µM); 92.5% in the experiment on Human fetal astrocytes [3] (22.22 µM).

As to `Nc1nc(=O)c2nc(CNc3ccc(C(=O)N[C@@H](CCC(=O)O)C(=O)O)cc3)cnc2[nH]1`, the “loss of total cells” value was -0.8% in the experiment on Human fetal astrocytes [2] (1.39 µM); 2.1% in the experiment with Human fetal astrocytes [2] (2.78 µM); 26.1% in the experiment on Human fetal astrocytes [2] (5.56 µM); 0% in the experiment on Human fetal astrocytes [2] (11.11 µM); 22.7% in the experiment with Human fetal astrocytes [2] (22.22 µM). The synaptosome phagocytosis in the experiment on Human fetal astrocytes [3] (1.39 µM) was 120%; with Human fetal astrocytes [3] (2.78 µM), 89.7%; in the experiment on Human fetal astrocytes [3] (5.56 µM), 115%; in the experiment on Human fetal astrocytes [3] (11.11 µM) it was 116%; in the experiment with Human fetal astrocytes [3] (22.22 µM) it was 121%.

`CCCCC1C(=O)N(c2ccccc2)N(c2ccccc2)C1=O` [Phenylbutazone]: the “loss of total cells” value in the experiment on Human fetal astrocytes [1] (1.39 µM) is -11.5%; with Human fetal astrocytes [1] (2.78 µM), -0.3%; with Human fetal astrocytes [1] (5.56 µM), 0.6%; in the experiment on Human fetal astrocytes [1] (11.11 µM), 1.9%; with Human fetal astrocytes [1] (22.22 µM), 7.4%; with Human fetal astrocytes [2] (1.39 µM), -15.8%. Also, the “loss of total cells” value with Human fetal astrocytes [2] (2.78 µM) was -19.8%; in the experiment with Human fetal astrocytes [2] (5.56 µM), -18.3%; in the experiment with Human fetal astrocytes [2] (11.11 µM) it was -35.2%; in the experiment on Human fetal astrocytes [2] (22.22 µM) it was -13.6%. Also, the synaptosome phagocytosis with Human fetal astrocytes [3] (1.39 µM) was 89.1%; in the experiment with Human fetal astrocytes [3] (2.78 µM), 79.7%; with Human fetal astrocytes [3] (5.56 µM), 87.2%; with Human fetal astrocytes [3] (11.11 µM) it was 117%; in the experiment with Human fetal astrocytes [3] (22.22 µM), 131%; in the experiment on Human fetal astrocytes [4] (1.39 µM) it was 99.3%. The synaptosome phagocytosis in the experiment on Human fetal astrocytes [4] (2.78 µM) is 115%; in the experiment with Human fetal astrocytes [4] (5.56 µM) it was 101%; in the experiment with Human fetal astrocytes [4] (11.11 µM) it was 113%; in the experiment with Human fetal astrocytes [4] (22.22 µM), 120%.

As to `COc1ccc(C(=O)CC(=O)c2ccc(C(C)(C)C)cc2)cc1`, the “loss of total cells” value in the experiment with Human fetal astrocytes [2] (1.39 µM) was -0.8%; in the experiment on Human fetal astrocytes [2] (2.78 µM) it was -31.7%; with Human fetal astrocytes [2] (5.56 µM), 2.5%; with Human fetal astrocytes [2] (11.11 µM), 1%; with Human fetal astrocytes [2] (22.22 µM), 9.7%. The synaptosome phagocytosis with Human fetal astrocytes [3] (1.39 µM) was 109%; in the experiment with Human fetal astrocytes [3] (2.78 µM), 120%; in the experiment on Human fetal astrocytes [3] (5.56 µM) it was 110%; in the experiment with Human fetal astrocytes [3] (11.11 µM), 91.3%; in the experiment with Human fetal astrocytes [3] (22.22 µM), 114%.

Turning to `COc1ccc2c(c1)c(CC(=O)OCC(=O)O)c(C)n2C(=O)c1ccc(Cl)cc1`, the “loss of total cells” value is -8.3% with Human fetal astrocytes [2] (1.39 µM); 7.6% with Human fetal astrocytes [2] (2.78 µM); 13.8% in the experiment with Human fetal astrocytes [2] (5.56 µM); -22.2% in the experiment on Human fetal astrocytes [2] (11.11 µM); 6.1% in the experiment on Human fetal astrocytes [2] (22.22 µM). The synaptosome phagocytosis with Human fetal astrocytes [3] (1.39 µM) was 84.8%; in the experiment with Human fetal astrocytes [3] (2.78 µM), 96.2%; in the experiment with Human fetal astrocytes [3] (5.56 µM) it was 133%; with Human fetal astrocytes [3] (11.11 µM), 110%; in the experiment with Human fetal astrocytes [3] (22.22 µM) it was 107%.

For the molecule `CCN(CC)CCNC(=O)c1cc(Br)c(N)cc1OC`, the “loss of total cells” value was determined as 12.6% in the experiment on Human fetal astrocytes [2] (1.39 µM); 9.7% in the experiment with Human fetal astrocytes [2] (2.78 µM); 15.9% with Human fetal astrocytes [2] (5.56 µM); 8.8% with Human fetal astrocytes [2] (11.11 µM); 9.1% in the experiment on Human fetal astrocytes [2] (22.22 µM). Besides, the synaptosome phagocytosis with Human fetal astrocytes [3] (1.39 µM) was 97.3%; in the experiment with Human fetal astrocytes [3] (2.78 µM) it was 109%; in the experiment with Human fetal astrocytes [3] (5.56 µM) it was 99.3%; in the experiment on Human fetal astrocytes [3] (11.11 µM), 109%; in the experiment with Human fetal astrocytes [3] (22.22 µM), 95.3%.

On to `CC(=O)C1CCC2C3CC=C4CC(OS(=O)(=O)O)CCC4(C)C3CCC12C` (stereo not given), for which the “loss of total cells” value is -9.8% with Human fetal astrocytes [2] (1.39 µM); 4% in the experiment with Human fetal astrocytes [2] (2.78 µM); -5.9% in the experiment with Human fetal astrocytes [2] (5.56 µM); 10.8% in the experiment with Human fetal astrocytes [2] (11.11 µM); 12.6% in the experiment with Human fetal astrocytes [2] (22.22 µM). Also, the synaptosome phagocytosis with Human fetal astrocytes [3] (1.39 µM) was 121%; with Human fetal astrocytes [3] (2.78 µM), 83.3%; with Human fetal astrocytes [3] (5.56 µM), 139%; in the experiment on Human fetal astrocytes [3] (11.11 µM), 134%; in the experiment on Human fetal astrocytes [3] (22.22 µM) it was 106%.
